{
  "sequences": {"note": "Sequences of proteins named here, by UniProt entry; tags and fusion partners are left off. A change or cut given only in a name is not applied to a line headed by its entry.", "UniProt Q9NXB0": "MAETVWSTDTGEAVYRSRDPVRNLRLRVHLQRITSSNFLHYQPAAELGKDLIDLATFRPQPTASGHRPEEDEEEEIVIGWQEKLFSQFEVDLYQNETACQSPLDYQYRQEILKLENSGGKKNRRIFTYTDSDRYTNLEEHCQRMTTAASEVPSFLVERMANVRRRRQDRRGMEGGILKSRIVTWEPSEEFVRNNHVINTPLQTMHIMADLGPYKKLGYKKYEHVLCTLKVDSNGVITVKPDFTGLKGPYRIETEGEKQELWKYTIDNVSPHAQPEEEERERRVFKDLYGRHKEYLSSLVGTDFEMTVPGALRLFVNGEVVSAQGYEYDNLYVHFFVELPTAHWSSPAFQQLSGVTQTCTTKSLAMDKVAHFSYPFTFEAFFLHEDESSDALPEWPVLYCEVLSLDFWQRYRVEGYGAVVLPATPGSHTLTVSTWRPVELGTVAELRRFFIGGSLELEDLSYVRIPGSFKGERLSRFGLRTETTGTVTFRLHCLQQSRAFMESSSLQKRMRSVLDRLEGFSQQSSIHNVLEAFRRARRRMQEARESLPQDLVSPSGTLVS"},
  "source": "paper PMC7592398",
  "binders": {"B1": {"name": "HA-tagged B9D2 (protein, UniProt Q9BPU9 1-175)", "chain": "MAEVHVIGQIIGASGFSESSLFCKWGIHTGAAWKLLSGVREGQTQVDTPQIGDMAYWSHPIDLHFATKGLQGWPRLHFQVWSQDSFGRCQLAGYGFCHVPSSPGTHQLACPTWRPLGSWREQLARAFVGGGPQLLHGDTIYSGADRYRLHTAAGGTVHLEIGLLLRNFDRYGVEC"}},
  "target": "FLAG-tagged B9 domain-lacking MKS1 (human) (UniProt Q9NXB0)",
  "experiment": "co-IP; transfected HEK293T cells; lysis in 20 mM Tris-HCl pH 7.5, 150 mM NaCl, 0.5 mM EDTA, 0.5% Triton X-100; FLAG-MKS1 variants captured on FLAG M2 beads 2 h at 4°C, eluted with 3xFLAG peptide; blot with anti-FLAG and anti-HA",
  "note": "No constants are given. Whether binding was seen depends on the method and setting. In cells and extracts the contact can be indirect. Sequences can lack the tags named with a protein.",
  "data": [
    {"binder": "B1", "values": [
      {"measurement": "binding", "value": "no binding"}
    ]}
  ]
}
